Article PMC4476799, “Englerin A Agonizes the TRPC4/C5 Cation Channels to Inhibit Tumor Cell Line Proliferation” (PLoS ONE, 2015)
Further values from the same series stand in other lists.

Test system: cancer cell lines from the cancer cell line encyclopedia (CCLE)
Assay: Cell line profiling (CLiP) proliferation experiment
Format: cell-based
Set-up: ACTIVITY_AREA: scale not given here; AMAX: unit not given here
Method: Compound profiling experiment and data analysis was performed as previously described. Data was imported and plotted using the Tibco Spotfire DXP application. Lines were categorized as sensitive, intermediate and refractory as follows: Amax<-40 & Inflection Point <2 ~ Sensitive, Amax>-20 & Inflection Point >10 ~ Refractory, all else were called Intermediate. Cancer Cell line HG-U133 Plus 2 data was processed and normalized as described. […] Five sets of refractory cell lines were generated from the pool of refractory cell lines trying to match the lineage composition of the set of sensitive cell lines. The limma package was used as previously described to perform the statistical comparison.

[1] = Calu-1, lung, squamous_cell_carcinoma
[2] = EOL-1 (haematopoietic_and_lymphoid_tissue)
[3] = FaDu (upper_aerodigestive_tract)
[4] = Ishikawa (Heraklio) 02 ER- cells

Compound: CC(C)[C@@]12C[C@@H](O)[C@@](C)(O1)[C@@H]1CC[C@@H](C)[C@H]1[C@@H]2OC(=O)/C=C/c1ccccc1 [Englerin B]
- AMAX (COR-L23 (lung)): -39.64
- RESPONSE (COR-L23 (lung)): INTERMEDIATE
- ACTIVITY_AREA (COR-L47 cells): 92.1
- AMAX (COR-L47 cells): -15.76
- RESPONSE (COR-L47 cells): REFRACTORY
- ACTIVITY_AREA (COR-L88 (lung)): 20.83
- AMAX (COR-L88 (lung)): -31.56
- RESPONSE (COR-L88 (lung)): INTERMEDIATE
- ACTIVITY_AREA (COR-L279 (lung)): 130.29
- AMAX (COR-L279 (lung)): -86.84
- RESPONSE (COR-L279 (lung)): INTERMEDIATE
- ACTIVITY_AREA (COV318 (ovary)): 39.59
- AMAX (COV318 (ovary)): -54.13
- RESPONSE (COV318 (ovary)): INTERMEDIATE
- ACTIVITY_AREA (COV644 cells): 35.24
- AMAX (COV644 cells): -28.86
- RESPONSE (COV644 cells): INTERMEDIATE
- ACTIVITY_AREA (Caki-1 (kidney)): 27.97
- AMAX (Caki-1 (kidney)): -31.84
- RESPONSE (Caki-1 (kidney)): INTERMEDIATE
- ACTIVITY_AREA (Caki-2 (kidney)): 52.8
- AMAX (Caki-2 (kidney)): -38.65
- RESPONSE (Caki-2 (kidney)): INTERMEDIATE
- ACTIVITY_AREA [1]: 52.11
- AMAX [1]: -42.82
- RESPONSE [1]: INTERMEDIATE
- ACTIVITY_AREA (Calu-3 (lung)): 19.78
- AMAX (Calu-3 (lung)): 4.65
- RESPONSE (Calu-3 (lung)): REFRACTORY
- ACTIVITY_AREA (Calu-6 cells): 28.42
- AMAX (Calu-6 cells): -47.13
- RESPONSE (Calu-6 cells): INTERMEDIATE
- ACTIVITY_AREA (Capan-1 (pancreas)): 29.63
- AMAX (Capan-1 (pancreas)): -25.75
- RESPONSE (Capan-1 (pancreas)): INTERMEDIATE
- ACTIVITY_AREA (DAN-G cells): 26.93
- AMAX (DAN-G cells): -50.77
- RESPONSE (DAN-G cells): INTERMEDIATE
- ACTIVITY_AREA (DK-MG (central_nervous_system)): 33.27
- AMAX (DK-MG (central_nervous_system)): -67.8
- RESPONSE (DK-MG (central_nervous_system)): INTERMEDIATE
- ACTIVITY_AREA (DMS 79 (lung)): 49.26
- AMAX (DMS 79 (lung)): -10.4
- RESPONSE (DMS 79 (lung)): REFRACTORY
- ACTIVITY_AREA (DMS 273 (lung)): 29.68
- AMAX (DMS 273 (lung)): -73.92
- RESPONSE (DMS 273 (lung)): INTERMEDIATE
- ACTIVITY_AREA (Daoy (central_nervous_system)): 43
- AMAX (Daoy (central_nervous_system)): -39.21
- RESPONSE (Daoy (central_nervous_system)): INTERMEDIATE
- ACTIVITY_AREA (EBC-1 (lung)): 56.14
- AMAX (EBC-1 (lung)): -53.25
- RESPONSE (EBC-1 (lung)): INTERMEDIATE
- ACTIVITY_AREA [2]: 60.59
- AMAX [2]: -94.78
- RESPONSE [2]: INTERMEDIATE
- ACTIVITY_AREA [3]: 21.14
- AMAX [3]: -61.31
- RESPONSE [3]: INTERMEDIATE
- ACTIVITY_AREA (G-402 (soft_tissue)): 90.01
- AMAX (G-402 (soft_tissue)): -70.25
- RESPONSE (G-402 (soft_tissue)): INTERMEDIATE
- ACTIVITY_AREA (GAMG (central_nervous_system)): 50.48
- AMAX (GAMG (central_nervous_system)): -45.21
- RESPONSE (GAMG (central_nervous_system)): INTERMEDIATE
- ACTIVITY_AREA (Hs 940.T cells): 53.93
- AMAX (Hs 940.T cells): -48.14
- RESPONSE (Hs 940.T cells): INTERMEDIATE
- ACTIVITY_AREA (IGR-1 cells): 22.7
- AMAX (IGR-1 cells): 1.27
- RESPONSE (IGR-1 cells): REFRACTORY
- ACTIVITY_AREA (IGROV1 cells): 38.35
- AMAX (IGROV1 cells): -25.23
- RESPONSE (IGROV1 cells): INTERMEDIATE
- ACTIVITY_AREA (IMR-32): 27.44
- RESPONSE (IMR-32): INTERMEDIATE
- ACTIVITY_AREA (IMR-32 cells): 27.44
- AMAX (IMR-32 cells): -58.42
- RESPONSE (IMR-32 cells): INTERMEDIATE
- ACTIVITY_AREA (IPC-298): 31.6
- AMAX (IPC-298): -31.36
- RESPONSE (IPC-298): INTERMEDIATE
- ACTIVITY_AREA (Ishikawa (Heraklio) 02 ER-): 61.49
- AMAX (Ishikawa (Heraklio) 02 ER-): -30.52
- RESPONSE (Ishikawa (Heraklio) 02 ER-): INTERMEDIATE
- ACTIVITY_AREA [4]: 61.49
- AMAX [4]: -30.52
- RESPONSE [4]: INTERMEDIATE
- ACTIVITY_AREA (J82): 6.63
- AMAX (J82): -28.14
- RESPONSE (J82): INTERMEDIATE
- ACTIVITY_AREA (JHH-2): 49.18
- AMAX (JHH-2): -46.72
- RESPONSE (JHH-2): INTERMEDIATE
- ACTIVITY_AREA (JHH-5): 87.62
- AMAX (JHH-5): -77.22
- RESPONSE (JHH-5): INTERMEDIATE
- ACTIVITY_AREA (JHH-5 cells): 87.62
- AMAX (JHH-5 cells): -77.22
- RESPONSE (JHH-5 cells): INTERMEDIATE
- ACTIVITY_AREA (JHH-7): 83.45
- AMAX (JHH-7): -63.4
- RESPONSE (JHH-7): INTERMEDIATE
- ACTIVITY_AREA (JHH-7 cells): 83.45
- AMAX (JHH-7 cells): -63.4
- RESPONSE (JHH-7 cells): INTERMEDIATE
- ACTIVITY_AREA (JHOM-1): 17.33
- AMAX (JHOM-1): -51.79
- RESPONSE (JHOM-1): INTERMEDIATE
- ACTIVITY_AREA (JHUEM-2): 66.85
- AMAX (JHUEM-2): -64.47
- RESPONSE (JHUEM-2): INTERMEDIATE
- ACTIVITY_AREA (JHUEM-2 cells): 66.85
- AMAX (JHUEM-2 cells): -64.47
- RESPONSE (JHUEM-2 cells): INTERMEDIATE
- ACTIVITY_AREA (JIMT-1): 104.64
- AMAX (JIMT-1): -45.73
- RESPONSE (JIMT-1): INTERMEDIATE
- ACTIVITY_AREA (JIMT-1 cells): 104.64
- AMAX (JIMT-1 cells): -45.73
- RESPONSE (JIMT-1 cells): INTERMEDIATE
- ACTIVITY_AREA (JJN-3): 16.87
- AMAX (JJN-3): -1.17
- RESPONSE (JJN-3): REFRACTORY
- ACTIVITY_AREA (JURKAT): 72.2
- AMAX (JURKAT): -83.41
- RESPONSE (JURKAT): INTERMEDIATE
- ACTIVITY_AREA (JVM-2): 24.94
- AMAX (JVM-2): -71.84
- RESPONSE (JVM-2): INTERMEDIATE
- ACTIVITY_AREA (JVM-2 cells): 24.94
- AMAX (JVM-2 cells): -71.84
- RESPONSE (JVM-2 cells): INTERMEDIATE
- ACTIVITY_AREA (JVM-3): 18.3
- AMAX (JVM-3): 3.55
- RESPONSE (JVM-3): REFRACTORY
- ACTIVITY_AREA (JeKo-1): 56.66
- AMAX (JeKo-1): -89.85
- RESPONSE (JeKo-1): INTERMEDIATE
- ACTIVITY_AREA (JeKo-1 cells): 56.66
- AMAX (JeKo-1 cells): -89.85
- RESPONSE (JeKo-1 cells): INTERMEDIATE
- ACTIVITY_AREA (K029AX): 17.85
- AMAX (K029AX): -36.4
- RESPONSE (K029AX): INTERMEDIATE
- ACTIVITY_AREA (K029AX (skin)): 17.85
- AMAX (K029AX (skin)): -36.4
- RESPONSE (K029AX (skin)): INTERMEDIATE
- ACTIVITY_AREA (K-562): 49.17
- AMAX (K-562): -49.05
- RESPONSE (K-562): INTERMEDIATE
- ACTIVITY_AREA (KARPAS-299): 51.51
- AMAX (KARPAS-299): -86.39
- RESPONSE (KARPAS-299): INTERMEDIATE
- ACTIVITY_AREA (KARPAS-422): 82.39
- AMAX (KARPAS-422): -81.82
- RESPONSE (KARPAS-422): INTERMEDIATE
- ACTIVITY_AREA (KARPAS-422 cells): 82.39
- AMAX (KARPAS-422 cells): -81.82
- RESPONSE (KARPAS-422 cells): INTERMEDIATE
- ACTIVITY_AREA (KARPAS-620): 32.66
- RESPONSE (KARPAS-620): INTERMEDIATE
- ACTIVITY_AREA (KASUMI-2): 22.15
- AMAX (KASUMI-2): -57.05
- RESPONSE (KASUMI-2): INTERMEDIATE
- ACTIVITY_AREA (KASUMI-2 cells): 22.15
- AMAX (KASUMI-2 cells): -57.05
- RESPONSE (KASUMI-2 cells): INTERMEDIATE
- ACTIVITY_AREA (KATO III): 50.08
- AMAX (KATO III): -60.06
- RESPONSE (KATO III): INTERMEDIATE
- ACTIVITY_AREA (KCL-22): 43.03
